Assay results: the supplement of paper PMC3334620
Whole data set: some 33,000 sequences, median “E-score (-0.5 to 0.5)” near -0.016, cut for the highest 2% near 0.3. This is one part of the list.

Biological target: T1, Yer184c (UniProt P39961)
T1 sequence: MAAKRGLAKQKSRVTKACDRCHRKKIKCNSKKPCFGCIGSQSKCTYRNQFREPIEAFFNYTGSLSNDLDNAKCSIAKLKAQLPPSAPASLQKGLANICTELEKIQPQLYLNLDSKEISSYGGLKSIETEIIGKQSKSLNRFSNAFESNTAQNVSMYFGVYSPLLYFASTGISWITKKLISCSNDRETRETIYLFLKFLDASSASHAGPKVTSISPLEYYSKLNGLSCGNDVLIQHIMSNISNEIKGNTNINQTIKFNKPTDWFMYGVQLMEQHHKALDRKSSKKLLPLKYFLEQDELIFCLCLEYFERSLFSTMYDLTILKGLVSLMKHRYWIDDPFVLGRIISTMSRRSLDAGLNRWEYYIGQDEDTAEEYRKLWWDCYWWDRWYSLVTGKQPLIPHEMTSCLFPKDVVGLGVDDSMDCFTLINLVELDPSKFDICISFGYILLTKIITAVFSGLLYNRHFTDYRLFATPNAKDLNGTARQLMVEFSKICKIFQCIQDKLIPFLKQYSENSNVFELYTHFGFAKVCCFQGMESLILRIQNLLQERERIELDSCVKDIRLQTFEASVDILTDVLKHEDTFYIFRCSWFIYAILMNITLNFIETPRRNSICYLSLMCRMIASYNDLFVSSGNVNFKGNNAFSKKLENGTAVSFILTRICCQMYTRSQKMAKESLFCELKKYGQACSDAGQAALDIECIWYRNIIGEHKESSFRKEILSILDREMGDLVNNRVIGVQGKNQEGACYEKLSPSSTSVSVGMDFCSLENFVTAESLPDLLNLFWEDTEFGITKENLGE
Assay: PBM E-score (8-mer binding enrichment) (E-score (-0.5 to 0.5)); higher = stronger / more preferred TF binding
Conditions: protein concentration: 100 nM; construct: GST-full length
Method: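 Universal 'all 10-mer' protein binding microarrays (Agilent AMADID 015681) probed with GST-tagged S. cerevisiae TFs (full-length or DBD) made by in vitro transcription/translation (PURExpress), about 100-200 nM. Bound TF was detected with fluorescent anti-GST. Each ungapped 8-mer (which stands for itself and its reverse complement) is scored by the PBM enrichment score (E-score), a modified Wilcoxon-Mann-Whitney statistic from -0.5 to +0.5, computed with the Universal PBM Analysis Suite. Scale: above 0.35 generally sequence-specific binding.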

Sequence	PBM E-score
CCCAAGGC	-0.091
ATAATCGC	0.0649
TCCTTGAA	-0.0767
AGGGTTCG	-0.198
TATTGACA	-0.0684
ACGGATAT	0.339
CCAGGTCC	-0.182
CTCTCACC	0.0733
ACAGCCCT	-0.155
GTTATCTA	-0.0983
CGACATCG	-0.024
GACCAGCA	-0.157
AACACCGT	-0.0129
AATTAGCT	0.0419
GCCCCCCC	-0.402
AGCGCGAA	0.191
CTGCGGAA	0.0709
GATATTCA	0.0204
CAAGCATA	0.026
AGGGGTAT	-0.33
CTATAATA	0.145
GTCGCGGA	0.056

Sequence	PBM E-score
AACATAGC	-0.101
GCATAGGC	-0.26
CACATCCA	-0.0038
CCAAATAC	-0.123
ACAACACT	0.143
ACGCCGTA	0.0437
GGATGTTA	0.0131
CTCGGAAA	0.289
CTTGCAGA	-0.0454
CCCTCTTA	-0.157
AAGGCTTG	-0.151
CAACGTAC	-0.0763
CGATAGCG	-0.128
CCAGCGGA	-0.238
ACTAAATA	0.221
ACGCATGC	0.215
ACCGTCGT	0.105
CATCTTCC	0.0831
ACATTGGC	-0.134
CACCGGAC	0.268
CGGGCGAA	0.107
GGGCGAAC	0.0696

A second format for some results above:
CACATCCA
  PBM E-score = -0.0038
CCAAATAC
  PBM E-score = -0.123
ACAACACT
  PBM E-score = 0.143
ACGCCGTA
  PBM E-score = 0.0437

Carrying on.

Sequence	PBM E-score
GTCGGTTA	0.149
AAGCGAAC	-0.0829
CGCGCTCA	0.0286
ATACGACC	-0.182
CTATTTCA	0.251
CTGGGCTA	-0.26
CGCCAGGA	-0.0944
AGCGACGG	0.0874
ACGAGCAG	-0.0845
AAATCATA	0.187
AATGCATT	0.121
ATCCAACG	-0.0561
GACGGGAC	-0.125
GAATCCAA	0.0377
AAGGAAAC	0.0646
ACCCAGTG	-0.306
ACACACTA	-0.0687
CGGAGAGA	0.185
CAGGATGG	-0.115
TAGCGATA	-0.0205
AGGCGAAA	-0.031
AACCATGA	0.0716

Sequence	PBM E-score
CAGGTTAC	-0.131
ATTATGCA	-0.0522
CCGGGAAA	0.35
AAAGCATG	-0.0668
GGGAGGGA	-0.105
GATTTGGA	0.0599
CATAAATC	0.0811
GAGTAACA	0.211
AGTGGACC	-0.274
AATGGGGC	-0.352
ATGTCCGA	0.231
CGATTTAA	0.166
CATTAAAC	0.0982
CTGTAACC	0.0184
CAGGGATG	-0.128
GCTCTCCC	-0.232
AAAATATT	0.0702
CGCCAGCG	0.026
TTGTGAAA	0.0648
ACATGATC	0.073
